According to patent US20230286955A1, “INHIBITORS OF THEM1” (Cornell University, priority 2022, published 2023):
For part of these data: At least one compound was matched to its structure with a doubt left. Some of these results come from one statement about several compounds together.

Tests used:
recombinant human Them1 = biological target: T1, recombinant human Them1 (Homo sapiens, UniProt Q8WXI4); test: Acot activity assay (fluorometric, C14-CoA), inhibition of Them1; type: biochemical; details: in words; listed as compound U4
T1 construct: Reaction labeling recombinant full-length Them1; made in house; host or cells: E. coli Shuffle T7
T1 sequence (Q8WXI4 14-594 isoform Q8WXI4-2 limits assumed): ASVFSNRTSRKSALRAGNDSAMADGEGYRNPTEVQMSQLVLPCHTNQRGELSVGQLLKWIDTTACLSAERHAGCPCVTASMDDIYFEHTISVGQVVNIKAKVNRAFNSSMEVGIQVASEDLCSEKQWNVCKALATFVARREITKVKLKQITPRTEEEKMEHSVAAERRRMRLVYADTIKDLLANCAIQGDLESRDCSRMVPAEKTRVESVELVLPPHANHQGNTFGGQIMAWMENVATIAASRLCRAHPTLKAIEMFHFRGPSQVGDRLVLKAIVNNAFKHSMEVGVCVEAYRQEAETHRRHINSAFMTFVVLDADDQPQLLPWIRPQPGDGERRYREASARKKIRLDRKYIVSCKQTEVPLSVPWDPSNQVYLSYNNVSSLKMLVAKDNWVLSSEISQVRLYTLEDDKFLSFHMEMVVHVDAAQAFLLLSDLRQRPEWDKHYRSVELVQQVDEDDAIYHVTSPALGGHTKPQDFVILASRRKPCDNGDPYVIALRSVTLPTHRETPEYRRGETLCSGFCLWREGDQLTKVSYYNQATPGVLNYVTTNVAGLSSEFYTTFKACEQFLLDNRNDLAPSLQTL
Method: Human Them1 consists of two splice variants (Them1a and Them1b) that are distinguished by an additional 13 amino acids at the C-terminus of the ‘a’ isoform (Adams et al., 2001). […] Sufficient quantities of recombinant Them1 required for the HTS were obtained as a service of the University of Georgia Bioexpression and Fermentation Core Facility (Athens, GA). […] Purity of recombinant Them1 was analyzed by SDS-PAGE followed by Coomassie Brilliant Blue staining. The concentration of recombinant Them1 was determined according to the molar extinction coefficient at 280 nm, which was calculated based on the amino acid sequence (www.expasy.org). Single use aliquots of recombinant Them1 were stored at −80° C. until use to prevent protein precipitation during purification. The pH values of all buffers were adjusted to remain at least two units removed from the pI of recombinant Them1.

full-length Them1 = biological target: T2, full-length Them1 (Homo sapiens, UniProt Q8WXI4); test: Microscale thermophoresis binding, full-length Them1; details: in words; listed as compound U4
T2 sequence (Q8WXI4 14-594 isoform Q8WXI4-2 limits assumed): T1 sequence (Q8WXI4 14-594 isoform Q8WXI4-2 limits assumed)

[1] = biological target: T3, recombinant His-tagged human Them1 (Homo sapiens, UniProt Q8WXI4); test: Assay for reversibility of Them1 inhibition (dialysis); type: biochemical; details: compounds […], C14-CoA 25 μM, 18 h dialysis
T3 construct: Reaction labeling recombinant full-length Them1; made in house; host or cells: E. coli Shuffle T7
T3 sequence (Q8WXI4 14-594 isoform Q8WXI4-2 limits assumed): T1 sequence (Q8WXI4 14-594 isoform Q8WXI4-2 limits assumed)
Method: Three buffer changes were performed over the extent of the 18 h dialysis. Post-dialysis reactions were incubated with fresh C14-CoA (25 μM) for 60 min at 22° C. Ebselen (Sigma Aldrich; St. Louis, MO) was used as a (−) control.

Row | SMILES | IC50 value compared to the parent U1 compound (recombinant human Them1) | Kd / binding affinity to full-length Them1 compared to the parent U1 compound (full-length Them1) | Them1 activity after overnight dialysis (reversibility of inhibition) [1]
1 | Cc1[nH]c2ccccc2c1C(c1cccs1)N1CCN(c2ccccc2)CC1 (stereo not drawn) [Compound U4] | similar | similar | 
2 | O=c1c2ccccc2[se]n1-c1ccccc1 [Ebselen, reference compound] |  |  | remained suppressed
